These are yes or no findings as the source states them, for the method shown. Binding calls can cover weak binding; strength is not graded here.
What was measured:
[1] = target: human AXL with a cynomolgus monkey extracellular domain (ECD) (cynomolgus monkey (Macaca fascicularis); human); assay: flow cytometry, HEK293 cells transfected with human AXL carrying the cynomolgus ECD
[2] = target: human AXL with a cynomolgus monkey extracellular domain (ECD) (cynomolgus monkey (Macaca fascicularis); human); assay: flow cytometry, HEK293T cells with human AXL carrying cynomolgus ECD
[3] = target: human AXL with a mouse ECD (p33-HAMm-AXL) (human-mouse chimera (mouse ECD, human remainder)); assay: flow cytometry, HEK293T cells with human AXL carrying mouse ECD
[4] = target: human AXL with a mouse ECD (p33-HAMm-AXL) (human-mouse chimera (mouse ECD, human remainder)); assay: flow cytometry, HEK293 cells transfected with human AXL carrying the mouse ECD
[5] = target: human AXL with a mouse ECD (p33-HAMm-AXL) (human-mouse chimera (mouse ECD, human remainder)); assay: flow cytometry, 1 µg/mL antibody, transfected HEK293F cells

Measured: binding

B1: IgG1-AXL-733 (antibody, V domains shown)
VH: QVQLVESGGGVVQPGRSLRLSCAASGFSFSTYAMHWVRQAPGKGLEWVAVISYDGDNKYSADSVKGRFTISRDNSKNTLYLQMNSLRAEDTAVYYCARGRKLGIDAFDIWGQGTMVTVSS
VL: AIQLTQSPSSLSASVGDRVTITCRASQGISSALAWYQQKPGKAPKLLIYDASSLESGVPSRFSGSGSGTDFTLTISGLQPEDFATYYCQQFNSYPFTFGPGTKVDIK
binds: [1] | [2]

B2: IgG1-AXL-148 (antibody, V domains shown)
VH: EVQLLESGGGLVQPGGSLRLSCAASGFTFSSYAMTWVRQAPGKGLEWVSAISISGGSTFYADSVKGRFTISRDNSKNTLYLQMNSLRAEDTAVYYCRGYSGYVYDAFDFWGQGTMVTVSS
VL: DIQMTQSPSSLSASVGDRVTITCRASQGISNWLAWYQQKPEKAPKSLIYAASSLQSGVPSRFSGSGSGTDFTLTISSLQPEDFATYYCQQYNSYPLTFGGGTKVEIK
binds: [1] | [2]

B3: IgG1-AXL-183 (antibody, V domains shown)
VH: QVQLQQWGAGLLKPSETLSLTCAVYGGSFSGYYWSWIRQPPGKGLEWIGEINQSGSTNYNPSLKSRVTISVDTSKNQFSLKLSSVTAADTSVYYCASGNWDHFFDYWGQGTLVTVSS
VL: DIQMTQSPSSVSASVGDRVTITCRASQGISSWLAWYQHKPGKAPKLLIYATSSLQSGVTSRFSGSGSGTDFTLTISSLQPEDFATYYCQQAKSFPWTFGQGTKVEIK
binds: all assays above

B4: IgG1-AXL-183-N52Q (antibody, V domains shown)
VH: QVQLQQWGAGLLKPSETLSLTCAVYGGSFSGYYWSWIRQPPGKGLEWIGEIQQSGSTNYNPSLKSRVTISVDTSKNQFSLKLSSVTAADTSVYYCASGNWDHFFDYWGQGTLVTVSS
VL: DIQMTQSPSSVSASVGDRVTITCRASQGISSWLAWYQHKPGKAPKLLIYATSSLQSGVTSRFSGSGSGTDFTLTISSLQPEDFATYYCQQAKSFPWTFGQGTKVEIK
binds: [3] | [1] | [2]
